Experimental findings from patent publication US20180236024A1 are described below.

By UniProt entry, the sequences of proteins in these tests, tags left out. Where a name states a change or a piece, a line headed by the entry shows the natural chain unless it says otherwise.
UniProt O95166: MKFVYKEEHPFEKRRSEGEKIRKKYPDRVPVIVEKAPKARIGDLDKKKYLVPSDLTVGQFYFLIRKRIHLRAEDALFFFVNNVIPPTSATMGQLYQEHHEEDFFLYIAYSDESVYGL
UniProt P60520: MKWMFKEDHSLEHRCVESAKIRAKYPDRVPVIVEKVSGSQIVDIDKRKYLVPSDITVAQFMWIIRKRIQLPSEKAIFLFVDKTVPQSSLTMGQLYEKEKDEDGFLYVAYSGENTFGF
UniProt Q9BXW4: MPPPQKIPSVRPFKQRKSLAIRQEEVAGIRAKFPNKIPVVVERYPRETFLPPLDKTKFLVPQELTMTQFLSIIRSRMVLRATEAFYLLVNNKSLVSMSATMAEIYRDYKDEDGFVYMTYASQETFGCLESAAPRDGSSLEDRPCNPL
UniProt Q676U5: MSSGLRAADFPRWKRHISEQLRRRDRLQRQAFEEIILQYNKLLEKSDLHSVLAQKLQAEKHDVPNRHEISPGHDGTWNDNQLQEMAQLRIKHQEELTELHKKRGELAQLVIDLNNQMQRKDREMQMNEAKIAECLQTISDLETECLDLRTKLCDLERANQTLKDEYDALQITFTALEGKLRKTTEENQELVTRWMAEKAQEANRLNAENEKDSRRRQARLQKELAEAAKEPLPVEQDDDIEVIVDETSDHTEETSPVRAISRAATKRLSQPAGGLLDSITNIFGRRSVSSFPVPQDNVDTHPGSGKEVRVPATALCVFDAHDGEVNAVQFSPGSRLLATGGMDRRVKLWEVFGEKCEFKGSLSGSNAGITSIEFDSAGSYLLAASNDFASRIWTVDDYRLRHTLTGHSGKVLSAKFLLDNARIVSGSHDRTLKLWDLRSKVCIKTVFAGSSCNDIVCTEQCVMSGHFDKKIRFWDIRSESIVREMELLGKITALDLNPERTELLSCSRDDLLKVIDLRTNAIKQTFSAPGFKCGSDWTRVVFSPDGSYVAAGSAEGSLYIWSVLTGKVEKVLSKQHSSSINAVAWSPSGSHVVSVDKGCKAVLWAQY
UniProt P19474: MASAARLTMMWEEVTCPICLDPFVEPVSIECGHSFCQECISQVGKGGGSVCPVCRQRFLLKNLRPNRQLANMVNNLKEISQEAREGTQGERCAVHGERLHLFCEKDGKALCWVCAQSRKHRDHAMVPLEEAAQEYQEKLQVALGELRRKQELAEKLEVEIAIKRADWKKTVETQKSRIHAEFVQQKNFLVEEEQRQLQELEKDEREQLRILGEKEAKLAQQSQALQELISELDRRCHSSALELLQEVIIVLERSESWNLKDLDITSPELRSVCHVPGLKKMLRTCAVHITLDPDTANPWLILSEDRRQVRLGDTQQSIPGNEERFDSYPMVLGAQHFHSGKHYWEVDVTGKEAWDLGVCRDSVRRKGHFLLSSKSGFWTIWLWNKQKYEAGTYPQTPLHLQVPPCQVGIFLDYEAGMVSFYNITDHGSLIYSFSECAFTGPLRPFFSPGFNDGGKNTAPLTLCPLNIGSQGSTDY
UniProt O15553: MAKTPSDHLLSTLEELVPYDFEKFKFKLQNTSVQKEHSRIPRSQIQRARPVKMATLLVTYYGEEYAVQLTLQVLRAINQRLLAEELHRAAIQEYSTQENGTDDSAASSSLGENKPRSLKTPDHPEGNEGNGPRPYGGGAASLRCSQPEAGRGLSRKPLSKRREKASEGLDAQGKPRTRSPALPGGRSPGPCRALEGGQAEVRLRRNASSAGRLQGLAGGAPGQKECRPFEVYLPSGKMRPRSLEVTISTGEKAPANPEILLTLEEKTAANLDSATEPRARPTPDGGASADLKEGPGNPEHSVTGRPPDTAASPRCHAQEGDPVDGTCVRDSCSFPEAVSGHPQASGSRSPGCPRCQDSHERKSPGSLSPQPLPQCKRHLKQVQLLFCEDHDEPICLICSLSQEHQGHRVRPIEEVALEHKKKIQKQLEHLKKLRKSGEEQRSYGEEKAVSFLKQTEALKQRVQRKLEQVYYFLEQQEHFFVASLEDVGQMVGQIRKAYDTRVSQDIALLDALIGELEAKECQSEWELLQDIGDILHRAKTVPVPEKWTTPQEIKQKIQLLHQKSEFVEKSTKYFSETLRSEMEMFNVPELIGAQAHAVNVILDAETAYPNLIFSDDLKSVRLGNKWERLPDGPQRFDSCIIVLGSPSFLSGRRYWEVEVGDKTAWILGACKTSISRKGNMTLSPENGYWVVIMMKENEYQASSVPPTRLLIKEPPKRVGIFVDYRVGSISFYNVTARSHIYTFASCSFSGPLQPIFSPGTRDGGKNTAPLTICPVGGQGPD
UniProt Q9HC29: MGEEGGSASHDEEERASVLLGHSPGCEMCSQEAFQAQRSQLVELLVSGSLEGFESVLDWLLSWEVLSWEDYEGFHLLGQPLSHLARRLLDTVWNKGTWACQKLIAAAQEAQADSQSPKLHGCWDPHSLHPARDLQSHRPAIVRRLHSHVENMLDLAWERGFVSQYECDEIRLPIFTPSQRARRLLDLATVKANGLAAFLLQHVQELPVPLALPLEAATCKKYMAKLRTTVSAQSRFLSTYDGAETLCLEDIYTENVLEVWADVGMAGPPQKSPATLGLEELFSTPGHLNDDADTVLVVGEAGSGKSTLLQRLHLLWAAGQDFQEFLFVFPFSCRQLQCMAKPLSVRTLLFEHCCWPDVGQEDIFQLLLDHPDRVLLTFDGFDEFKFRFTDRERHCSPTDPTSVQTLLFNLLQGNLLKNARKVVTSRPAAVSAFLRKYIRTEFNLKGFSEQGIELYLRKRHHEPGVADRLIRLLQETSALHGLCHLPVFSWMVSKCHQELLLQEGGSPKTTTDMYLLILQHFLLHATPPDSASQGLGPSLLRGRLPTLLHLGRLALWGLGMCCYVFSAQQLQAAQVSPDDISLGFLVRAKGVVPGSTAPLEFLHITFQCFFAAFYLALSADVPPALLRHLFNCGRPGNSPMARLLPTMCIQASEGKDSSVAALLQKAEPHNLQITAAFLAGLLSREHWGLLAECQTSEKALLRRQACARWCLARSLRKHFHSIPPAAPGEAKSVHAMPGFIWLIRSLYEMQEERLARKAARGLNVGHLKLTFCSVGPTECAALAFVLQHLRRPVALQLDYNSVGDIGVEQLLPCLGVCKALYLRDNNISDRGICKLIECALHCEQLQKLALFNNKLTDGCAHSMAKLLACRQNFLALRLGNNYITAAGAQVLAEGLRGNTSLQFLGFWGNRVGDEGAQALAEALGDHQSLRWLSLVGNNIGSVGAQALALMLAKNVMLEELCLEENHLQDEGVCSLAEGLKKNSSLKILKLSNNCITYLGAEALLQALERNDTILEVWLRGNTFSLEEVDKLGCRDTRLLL

Assay [1] has as its target GST-GABARAP (UniProt O95166). As to the kind of experiment: GST pull-down of radiolabeled Myc-TRIM21 with GST-mAtg8s.
For a further assay, the target named is T1, ULK1 (UniProt O75385).
T1 sequence (looked up): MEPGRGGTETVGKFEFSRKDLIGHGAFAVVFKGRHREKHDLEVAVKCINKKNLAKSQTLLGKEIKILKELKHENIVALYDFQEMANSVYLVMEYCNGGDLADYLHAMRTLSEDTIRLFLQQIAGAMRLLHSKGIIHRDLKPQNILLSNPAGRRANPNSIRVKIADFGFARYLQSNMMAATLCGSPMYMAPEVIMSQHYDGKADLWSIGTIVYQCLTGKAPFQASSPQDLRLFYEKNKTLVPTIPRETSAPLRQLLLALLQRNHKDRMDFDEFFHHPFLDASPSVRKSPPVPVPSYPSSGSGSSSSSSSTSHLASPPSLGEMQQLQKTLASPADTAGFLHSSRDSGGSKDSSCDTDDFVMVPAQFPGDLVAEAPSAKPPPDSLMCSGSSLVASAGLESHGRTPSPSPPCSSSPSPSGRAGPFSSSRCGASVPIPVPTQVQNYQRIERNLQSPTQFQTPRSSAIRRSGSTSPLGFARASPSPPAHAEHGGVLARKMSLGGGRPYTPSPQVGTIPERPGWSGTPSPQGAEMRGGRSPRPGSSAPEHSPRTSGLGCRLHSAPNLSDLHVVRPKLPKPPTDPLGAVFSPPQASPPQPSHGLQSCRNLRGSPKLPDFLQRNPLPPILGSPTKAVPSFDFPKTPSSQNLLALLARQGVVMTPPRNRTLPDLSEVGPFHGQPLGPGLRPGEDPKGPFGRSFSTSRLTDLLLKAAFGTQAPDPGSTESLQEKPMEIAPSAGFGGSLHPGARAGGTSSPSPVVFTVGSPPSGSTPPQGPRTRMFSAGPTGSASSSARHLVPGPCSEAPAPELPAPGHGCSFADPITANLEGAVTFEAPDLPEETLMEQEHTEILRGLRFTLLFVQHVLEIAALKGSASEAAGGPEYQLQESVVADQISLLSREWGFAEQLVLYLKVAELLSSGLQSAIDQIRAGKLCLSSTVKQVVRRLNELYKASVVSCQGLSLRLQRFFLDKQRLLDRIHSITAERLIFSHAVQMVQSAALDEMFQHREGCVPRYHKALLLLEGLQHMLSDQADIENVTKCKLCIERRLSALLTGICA
The experiment in a line: co-IP of GFP-TRIM21 with Myc-ULK1, HEK293 cell extracts.

For assay [2], the target named is GST-LC3A (UniProt Q9H492). The experiment in a line: GST pull-down of radiolabeled Myc-TRIM20.
The target of another assay is GST-GABARAPL2 (UniProt P60520). The experiment in a line: GST pull-down of radiolabeled Myc-TRIM20.
A further assay has as its target GST-LC3C (UniProt Q9BXW4). As to the kind of experiment: GST pull-down of radiolabeled Myc-TRIM20.
In another assay the target is ATG16L1 (UniProt Q676U5). As to the kind of experiment: co-immunoprecipitation.
The target of assay [3] is GST-LC3A (UniProt Q9H492). As to the kind of experiment: GST pull-down of radiolabeled Myc-TRIM20 deletion variants.
In assay [4] the target is GST-GABARAP (UniProt O95166). Described as above.

These are yes or no findings as the source states them, for the method shown. Binding seen in cells or lysates may run through a third protein. Some entries that bind do so weakly or less than the wild type.

For “radiolabeled Myc-TRIM21 (from UniProt P19474 1-475)”, the binding result with GST-GABARAP [1] is recorded as “binds”.

On to “TRIM21 expressed in cells (from UniProt P19474 1-475)”, for which, in the assay with ULK1, the binding result is “binds”.

Turning to “radiolabeled Myc-TRIM20 (from UniProt O15553 1-781)”, the binding entry with GST-LC3A [2], in the assay with GST-GABARAPL2 and with GST-LC3C was “binds” each time.

Regarding “NOD2 (full length) (from UniProt Q9HC29 1-1040) (receptor)”, in the assay with ATG16L1, the binding result is recorded as “binds”.

For the substance “TRIM20 deletion construct spanning residues 375-595 (from UniProt O15553 375-595)”, the binding result with GST-LC3A [3] and with GST-GABARAP [4] was “binds” in each case.
